Experimental data: publication PMC12759081
No constants are given. Whether binding was seen depends on the method and setting. In cells and extracts the contact can be indirect. Here binding means that the protein was enriched with, or labelled near, the bait; the list need not be complete.

By UniProt entry, the sequences of proteins in these tests, tags left out.
UniProt Q96FF9: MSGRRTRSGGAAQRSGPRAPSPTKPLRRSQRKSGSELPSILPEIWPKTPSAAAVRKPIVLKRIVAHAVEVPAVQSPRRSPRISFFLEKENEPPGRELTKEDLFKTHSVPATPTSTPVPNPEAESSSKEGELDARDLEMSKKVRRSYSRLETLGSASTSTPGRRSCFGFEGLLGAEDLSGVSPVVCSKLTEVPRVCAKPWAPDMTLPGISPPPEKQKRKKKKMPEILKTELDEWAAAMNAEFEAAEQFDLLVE
UniProt O60216: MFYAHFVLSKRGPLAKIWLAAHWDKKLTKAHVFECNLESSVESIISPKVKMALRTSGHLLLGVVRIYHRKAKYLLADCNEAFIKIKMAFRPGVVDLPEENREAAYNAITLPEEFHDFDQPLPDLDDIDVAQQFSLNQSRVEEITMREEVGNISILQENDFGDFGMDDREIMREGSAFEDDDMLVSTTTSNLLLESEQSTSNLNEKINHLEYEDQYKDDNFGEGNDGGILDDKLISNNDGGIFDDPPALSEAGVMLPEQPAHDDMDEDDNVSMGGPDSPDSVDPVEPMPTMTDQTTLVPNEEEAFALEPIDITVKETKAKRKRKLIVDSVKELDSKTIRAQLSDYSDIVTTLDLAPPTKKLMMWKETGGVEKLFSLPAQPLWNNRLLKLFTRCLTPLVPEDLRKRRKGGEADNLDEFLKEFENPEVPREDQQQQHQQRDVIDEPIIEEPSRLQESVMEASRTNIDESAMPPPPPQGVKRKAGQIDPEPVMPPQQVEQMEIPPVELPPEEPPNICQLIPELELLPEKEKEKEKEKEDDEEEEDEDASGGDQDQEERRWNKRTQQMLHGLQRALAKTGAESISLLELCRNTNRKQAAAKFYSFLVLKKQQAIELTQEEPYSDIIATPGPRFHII
UniProt Q9UQE7: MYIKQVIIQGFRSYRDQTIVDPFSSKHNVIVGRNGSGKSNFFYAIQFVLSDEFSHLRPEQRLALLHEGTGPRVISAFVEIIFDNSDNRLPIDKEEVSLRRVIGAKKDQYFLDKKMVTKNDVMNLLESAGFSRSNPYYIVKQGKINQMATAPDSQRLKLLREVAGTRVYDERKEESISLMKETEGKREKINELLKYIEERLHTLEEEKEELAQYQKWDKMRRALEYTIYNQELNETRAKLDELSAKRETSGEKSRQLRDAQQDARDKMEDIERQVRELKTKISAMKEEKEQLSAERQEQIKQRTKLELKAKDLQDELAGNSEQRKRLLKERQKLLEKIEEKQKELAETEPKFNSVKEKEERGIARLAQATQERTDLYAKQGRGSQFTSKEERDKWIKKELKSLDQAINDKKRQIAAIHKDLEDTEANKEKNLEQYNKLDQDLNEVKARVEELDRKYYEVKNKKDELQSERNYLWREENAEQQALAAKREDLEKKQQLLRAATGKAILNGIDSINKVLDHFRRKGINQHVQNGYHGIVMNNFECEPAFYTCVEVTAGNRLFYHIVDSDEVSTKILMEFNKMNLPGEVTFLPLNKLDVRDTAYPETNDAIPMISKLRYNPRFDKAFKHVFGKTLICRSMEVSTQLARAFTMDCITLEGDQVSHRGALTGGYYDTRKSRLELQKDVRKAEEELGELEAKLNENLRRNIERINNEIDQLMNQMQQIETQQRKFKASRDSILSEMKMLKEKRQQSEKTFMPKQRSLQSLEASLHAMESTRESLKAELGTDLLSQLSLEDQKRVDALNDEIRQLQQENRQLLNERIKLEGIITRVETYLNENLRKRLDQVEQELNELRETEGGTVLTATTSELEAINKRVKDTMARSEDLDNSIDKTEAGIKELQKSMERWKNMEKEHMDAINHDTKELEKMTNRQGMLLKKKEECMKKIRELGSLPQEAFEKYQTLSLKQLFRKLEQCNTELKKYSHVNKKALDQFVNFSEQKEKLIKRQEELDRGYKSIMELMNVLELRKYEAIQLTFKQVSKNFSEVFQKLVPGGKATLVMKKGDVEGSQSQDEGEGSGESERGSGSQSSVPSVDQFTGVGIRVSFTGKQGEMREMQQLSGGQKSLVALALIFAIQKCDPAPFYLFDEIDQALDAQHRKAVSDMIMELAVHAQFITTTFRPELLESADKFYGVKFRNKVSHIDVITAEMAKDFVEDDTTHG

Molecular target: Flag-Sororin (human) (UniProt Q96FF9)
Test: affinity purification with mass spectrometry; Flag-Sororin overexpressed in HEK293F cells, precipitated with anti-Flag M2 agarose (4 h, 4 °C), eluted with Flag peptide, eluate analysed by mass spectrometry

Row | binding | Substance
1 | binds | RAD21 (from UniProt O60216 1-631)
2 | binds | SMC3 (from UniProt Q9UQE7 1-1217)
